Measurements from “University of Dundee, Small-Polar-MMV Screening Library” (2021), ChEMBL document CHEMBL3988442.

Amino acid sequences for entries named in this document (tags omitted).
UniProt P9WFT3, whole entry: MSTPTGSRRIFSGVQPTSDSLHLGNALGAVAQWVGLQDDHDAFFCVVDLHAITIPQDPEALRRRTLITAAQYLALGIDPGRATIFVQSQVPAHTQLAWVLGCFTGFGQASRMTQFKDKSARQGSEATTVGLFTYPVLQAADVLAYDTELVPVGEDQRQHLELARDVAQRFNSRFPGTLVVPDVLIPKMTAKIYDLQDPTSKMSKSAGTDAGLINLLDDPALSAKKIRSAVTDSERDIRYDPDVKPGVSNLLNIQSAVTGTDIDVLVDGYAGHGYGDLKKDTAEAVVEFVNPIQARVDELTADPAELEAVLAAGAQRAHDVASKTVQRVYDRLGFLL

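Tryptophan-tRNA ligase, Mycobacterium tuberculosis (UniProt P9WFT3). Enzyme assay of tryptophanyl-tRNA synthetase; the read-out is not stated. Concentration: 10 µM. Direction is not recorded; retested compounds ran higher, which suggests that high means inhibition. Size under these conditions: about 65,000 compounds, about 64 of them at 50% or above in at least one test.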

The filed quantity is “Percent Effect” (%).
How 0% and 100% were set is not recorded. Most values in the screen are low, and negative values occur.
The compounds are a random part of those screened.

SMILES,percent effect
CC(C)(C)c1ccc2c(c1)CCN2C(=O)c1nc(=O)[nH][nH]1,-2.197
CC(=O)NC[C@H]1COCc2nc3cc(S(C)(=O)=O)ccc3n21,-0.5311
Cc1cc(C(=O)N2CCc3c(nc(-c4ccncc4)[nH]c3=O)C2)no1,1.205
CCOCC(=O)N1Cc2cnc(-c3ccccc3)nc2C1,1.685
Cc1c(CS(C)(=O)=O)cccc1NCCCC1CCCC1,-6.776
CCc1ccccc1-n1cc(O)c(C(=O)N2CCCCC2)n1,-2.818
Cc1cn2c(CN(C)C(=O)c3nccnc3N)c(C)nc2s1,-5.502
COc1ccc(N(Cc2ccco2)C(=O)C2CCOC2)cc1F (centres unmarked),-2.478
CCCC(C)C(=O)N1CCC(c2cc(N3CCOCC3)nc(C)n2)CC1 (centres unmarked),-5.103
COc1ccccc1N1CCN(C(=O)NC(C)c2nncn2C)CC1 (centres unmarked),-2.205
O=C(Nc1cccc(OC(F)F)c1)C1CN(S(=O)(=O)C2CC2)C1,-0.6839
Cc1nc2n(n1)CC(NCc1csc(-c3ccsc3)n1)CC2 (centres unmarked),-2.674
COCC(=O)N1CC(c2n[nH]cc2C)C1,-4.342
Cc1c(NC(C)C(C)C)cccc1C(=O)NCc1cnn(C)c1 (centres unmarked),0.3112
CCNC(=O)[C@@H]1C[C@H](NC(=O)c2ccccc2C#N)CN1CCCSC,5.016
CCC(=O)NCC(=O)NC(C)c1ccc(OCCC(C)C)cc1 (centres unmarked),0.9332
O=C(NCCSc1ccccc1F)NCc1cccnc1,2.279
CN(C)c1cc(CNCc2ccc(N3CCOCC3)cc2)ccn1,-2.374
NC(=O)c1nc(-c2ccc(Cl)cc2Cl)oc1N,-0.4531
COc1ccc2nnc(C(=O)NC3CCCC3)nc2c1,-4.16
Cc1c(Cl)cccc1N1CC(c2nnc(N)s2)CC1=O (centres unmarked),4.71
Cc1cccc(C(C(=O)N2CC(Oc3ccccc3F)C2)N(C)C)c1 (centres unmarked),-1.001
CCCN(CCO)C(=O)C1CCC(=O)N(CCc2ccc(Cl)cc2)C1 (centres unmarked),-2.464
Cc1cc(N2CCN(C(=O)c3cccnc3)CC2)nc(C)n1,-4.486
CCC(C)(N)c1nc(=O)c(C(C)C)c(C)[nH]1 (centres unmarked),-4.063
O=C1NC2(CCCN(C(=O)CCn3cccn3)C2)Oc2ccccc21 (centres unmarked),-4.147
CCc1ccsc1C(=O)N1CCS(=O)(=O)CC1,-2.23
O=C1N(c2cccc(F)c2)Cc2nc(=O)n(Cc3ccc(Cl)cc3)n21,-2.644
Cc1cc(NC(=O)CSc2nc(=O)ccn2C(C)C)no1,-4.744
COC(=O)C(CCSC)NC(=O)Cc1c(C)nn(-c2ccccc2)c1C (centres unmarked),-1.498
CC(=O)N(C)CC(=O)NC(C)c1ccc(OCCC(C)C)cc1 (centres unmarked),-5.671
CCCc1noc(CNc2cc(C[S+](C)[O-])ccc2Cl)n1 (centres unmarked),-4.497
O=C(CCCc1nc2ccccc2[nH]1)N1CCCC1c1ccccn1 (centres unmarked),-1.613
C[C@H]1C[C@H]2CN(C(=O)C3=CCCC3)CC[C@H]2O1,-6.871
FC(F)Oc1ccc(CNCc2cc(Cl)c3c(c2)OCO3)cc1,-9.923
CCOc1ccc(-c2cc(=O)n3c(n2)CCCCC3)cc1,-5.305
O=C(C[C@@H]1COC[C@H]2CN(Cc3cccnc3)C[C@@H]12)N1CCOCC1,2.905
CCS(=O)(=O)CC(=O)NC(C)c1ccccc1Oc1ccccc1 (centres unmarked),2.469
CCn1ncc2c1NC(=O)CC2c1cnc(NCc2ccccc2)nc1 (centres unmarked),8.346
Cc1noc(OCCOc2ccc(C#N)cc2)n1,4.815
O=C(NCCC1COc2ccccc2O1)c1ccc(N2CC(O)C2)nc1 (centres unmarked),2.093
COCCN1CCCN(C(=O)c2oc(C)nc2C)CC1,-1.016
COCC(=O)N1CC[C@@H](O)[C@@H]1Cc1ccccc1,-2.397
CCOc1cc(/C=C/c2ncc(C(=O)O)s2)cc(Br)c1OC,-2.792
Oc1cc(CNCCCN2CCCC2)nc2ccc(F)cc12,3.046
COc1cc(C(=O)NCC2CCCO2)nc2c(C)cc(F)cc12 (centres unmarked),4.341
CC(=O)Nc1nc(CN2CCCC2Cn2cncn2)cs1 (centres unmarked),2.638
CC1CCCCN1C(=O)c1ccc(=O)[nH]n1 (centres unmarked),-5.776
CC1CN(C)CCN1C(=O)c1cnc2onc(CC(C)(C)C)c2c1 (centres unmarked),-4.959
Cc1cccc(CN2CCc3[nH]nc(C(=O)N4CCNC(=O)C4)c3C2)n1,-3.776
CC(C)C(=O)N1CCCC12CCCN(C(=O)c1ccno1)C2 (centres unmarked),9.197
COc1ccccc1[C@@H]1CN(CC(=O)N2CCCCC2)C[C@H]1C(=O)O,6.556
O=C(NC1CC1)NC(c1cc(F)ccc1F)C1CC1 (centres unmarked),-2.167
Cc1ccc(Nc2nccc(C3CCN(C(=O)CN)C3)n2)nc1 (centres unmarked),-4.348
Cc1nc(N2CCCC2)nc2c1CN(C(=O)N1CCOCC1)CC2,1.756
CC(=O)c1cc2c(=O)[nH]c(=O)n(C)c2nc1C,-3.079
CCOC(=O)N1CCNC(c2cccs2)C1 (centres unmarked),9.578
Cc1nnc(CN2CCCC(CCc3ccccc3C(F)(F)F)C2)o1 (centres unmarked),3.987
Cn1c(=O)ccn(CC(=O)NCC2Cc3ccccc3O2)c1=O (centres unmarked),-7.545
O=C1COc2ccc(S(=O)(=O)N3CCOCC3)c3c2N1CCC3,-4.968
O=C(CN1CCN(CCO)CC1)NCCc1c(F)cccc1F,-2.249
O=C(NCc1ccon1)Nc1cc(F)ccc1N1CCCCC1,1.497
O=C(O)[C@@H]1CN(C(=O)c2ccc3[nH]nnc3c2)C[C@H]1c1ccccc1,3.357
CC(C)c1nnc2ccc(N3CCC(C(N)=O)CC3)nn12,-2.814
COCc1ccc(OC)c(CNC2CCCNC2=O)c1 (centres unmarked),-2.785
CCc1cccc2cc(CN)c(=O)[nH]c12,-7.031
CNC(=O)[C@@H]1C[C@@H](N)CN1Cc1ccc2cccc(OC)c2n1,-4.352
CNC(=O)Cc1noc(Cc2cccc(Cl)c2)n1,-4.19
Cc1nc2ccccc2nc1NCc1cccc(OCC2CCCO2)c1 (centres unmarked),-3.479
CCc1nc(CCNC(=O)NC2CCN(C(C)C)C2)sc1C (centres unmarked),-2.018
CS(=O)(=O)Nc1nn(Cc2ccc(F)cc2)cc1Br,-0.5181
c1cc(CN2CCC(Cc3noc(C4CC4)n3)CC2)c2c(c1)OCO2,0.6452
Cc1nc(CCNC(=O)C2CC(=O)N(C(C)C)C2)cs1 (centres unmarked),4.113
COC(=O)N1CC2(CCNCC2)c2cc(Cl)ccc21,-1.161
CC(=O)NC(CC(=O)Nc1ccc(C)cn1)c1ccccc1 (centres unmarked),-3.202
Cc1nc(C)n(CC2CCCN2Cc2cn3ccsc3n2)n1 (centres unmarked),-4.677

Once more, the final 6:

SMILES	percent effect
CS(=O)(=O)Nc1nn(Cc2ccc(F)cc2)cc1Br	-0.5181
c1cc(CN2CCC(Cc3noc(C4CC4)n3)CC2)c2c(c1)OCO2	0.6452
Cc1nc(CCNC(=O)C2CC(=O)N(C(C)C)C2)cs1 (centres unmarked)	4.113
COC(=O)N1CC2(CCNCC2)c2cc(Cl)ccc21	-1.161
CC(=O)NC(CC(=O)Nc1ccc(C)cn1)c1ccccc1 (centres unmarked)	-3.202
Cc1nc(C)n(CC2CCCN2Cc2cn3ccsc3n2)n1 (centres unmarked)	-4.677